Experimental findings from paper PMC4595342 are described below.

For the experiment, the target named is T1, KIF7-GFP (mouse) (UniProt B7ZNG0).
T1 sequence: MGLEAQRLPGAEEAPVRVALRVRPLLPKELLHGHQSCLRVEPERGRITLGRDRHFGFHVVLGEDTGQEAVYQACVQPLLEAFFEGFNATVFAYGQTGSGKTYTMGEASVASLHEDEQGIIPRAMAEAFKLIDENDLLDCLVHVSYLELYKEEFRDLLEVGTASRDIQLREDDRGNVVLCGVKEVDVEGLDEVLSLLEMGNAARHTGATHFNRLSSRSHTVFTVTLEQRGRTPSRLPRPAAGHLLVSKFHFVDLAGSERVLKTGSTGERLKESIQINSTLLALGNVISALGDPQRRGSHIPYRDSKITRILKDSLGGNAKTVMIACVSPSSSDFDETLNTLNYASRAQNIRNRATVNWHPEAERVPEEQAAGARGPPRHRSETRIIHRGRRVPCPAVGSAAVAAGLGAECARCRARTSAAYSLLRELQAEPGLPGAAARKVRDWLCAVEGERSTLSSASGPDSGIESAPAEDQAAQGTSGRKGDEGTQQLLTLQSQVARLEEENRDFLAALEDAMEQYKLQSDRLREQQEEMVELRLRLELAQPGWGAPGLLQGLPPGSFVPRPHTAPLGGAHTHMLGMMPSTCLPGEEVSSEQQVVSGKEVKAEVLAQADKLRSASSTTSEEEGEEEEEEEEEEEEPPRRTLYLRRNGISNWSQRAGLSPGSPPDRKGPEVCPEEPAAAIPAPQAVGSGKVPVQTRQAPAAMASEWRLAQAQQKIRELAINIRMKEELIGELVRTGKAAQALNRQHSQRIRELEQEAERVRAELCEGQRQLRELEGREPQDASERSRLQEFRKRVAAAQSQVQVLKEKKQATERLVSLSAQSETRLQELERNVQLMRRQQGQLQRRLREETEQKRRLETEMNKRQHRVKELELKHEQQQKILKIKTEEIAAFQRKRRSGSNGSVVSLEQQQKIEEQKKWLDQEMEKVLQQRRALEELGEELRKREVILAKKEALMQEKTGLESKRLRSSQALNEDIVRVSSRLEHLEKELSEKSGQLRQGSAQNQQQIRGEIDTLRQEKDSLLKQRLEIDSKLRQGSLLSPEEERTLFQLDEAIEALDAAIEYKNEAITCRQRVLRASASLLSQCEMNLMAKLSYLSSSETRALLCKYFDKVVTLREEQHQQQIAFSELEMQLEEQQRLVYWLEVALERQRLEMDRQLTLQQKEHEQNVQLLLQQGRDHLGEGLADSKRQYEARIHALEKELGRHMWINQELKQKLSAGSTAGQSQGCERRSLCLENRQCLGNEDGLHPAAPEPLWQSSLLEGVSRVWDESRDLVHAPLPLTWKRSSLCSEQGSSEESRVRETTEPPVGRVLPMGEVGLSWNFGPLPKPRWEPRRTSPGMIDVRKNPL
The experiment in a line: co-IP; KIF7-GFP precipitated with GFP-trap agarose beads (Chromotek GFP trap kit) from asynchronous KIF7-GFP expressing MLE15 cells; immunoblots of the precipitate; agarose beads as negative control. In general terms: A western blot detects proteins with antibodies after separation by electrophoresis.

These are yes or no findings as the source states them, for the method shown. In cells and extracts the contact can be indirect. Sequences can lack the tags named with a protein.

Consider cyclin b (mouse (endogenous in MLE15)), for which the binding entry is given as “no binding”.
